Source: PubChem BioAssay AID624297 (National Center for Advancing Translational Sciences (NCATS), 2012)
The campaign covered roughly 340,000 compounds. About 6,200 (1.8%) were called active. This list was built around the results that the source calls inconclusive (neither active nor inactive); the mix of calls is not that of the screen. Calls follow the shape of the dose curve; as a rule, active = well fitted activation curve with a large enough effect; inconclusive = small, poorly fitted or top-dose-only effect; inactive = no such curve, though single readings can be large or run the other way. Potencies beside an inconclusive call are fits to weak or partial responses and may not hold up.

Experiment: A quantitative high throughput screen for small molecules that induce DNA re-replication in SW480 colon adenocarcinoma cells. Also: nearly all actives have a fitted effect of over 55% in size. As to re-replication activation: % of control where 0% means no effect.
Conditions: Hoechst DNA content imaging, 48 h; re-replication activation: at 46.1 µM (top of the series) unless noted
In short: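 Image-based DNA-content assay: after two days of treatment, nuclei were labelled with the DNA dye Hoechst and imaged, and hits were compounds raising the count of nuclei showing high fluorescence intensity.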
Potency is read from the fitted curve at half-maximal effect.

SMILES	re-replication activation	Potency
COc1ccc(NC(=O)c2ccc(OCc3c(C)noc3C)c(OC)c2)cn1	inactive: -3.39%	–
Cc1nc(-c2ccc([N+](=O)[O-])cc2)nc2[nH]ccc(=O)c12	inactive: -11.6%	–
N#C/C(=C/c1cccs1)c1ccccn1	inactive: -13.5%	–
C=CC[C@@H](CC(=O)N(CCO)Cc1ccccc1)C(=O)N[C@H](COC(=O)[C@@H](CC=C)Cc1ccc(F)cc1)C(C)(C)C	–	inconclusive: 14.6 µM [activator, partial curve, poor fit]
Cc1cc(NC(=O)c2sc3ccccc3c2O)no1	–	inconclusive: 0.231 µM [activator, full curve]
Cc1ccccc1CSCC(=O)Nc1ccccc1-c1ccccc1	–	inconclusive: 0.0517 µM [activator, full curve, poor fit]
CC(C)(C)c1ccc(C(=O)CSc2ncn[nH]2)cc1	–	inconclusive: 10 µM [activator, partial curve, poor fit]
Cc1nn2c(Nc3ccc(F)cc3)c3c(nc2c1-c1ccccc1)CCC3	inactive: -5.41%	–
C/C(=N\NC(=O)Cc1cccn1C)c1cccs1	–	inconclusive: 8.2 µM [activator, partial curve, poor fit]
CC(=O)N/C(=C\c1ccccc1)C(=O)OCC(=O)N(C)C1CCCCC1	–	inconclusive: 23.1 µM [activator, single point]
COc1ccccc1NC(=O)COC(=O)C1CCN(/C=C/C(=O)C(F)(F)F)CC1	–	inconclusive: 0.0046 µM [activator, full curve, poor fit]
CC1(c2ccc(NC(=O)c3ccccc3F)cc2)CC1(Cl)Cl (stereo not given)	inactive: 3.25%	–
CCOC(=O)/C=c1\s/c(=C\c2ccc(C#N)cc2)c(=O)n1CC(=O)Nc1cccc(C)c1C	–	inconclusive: 0.58 µM [activator, partial curve, poor fit]
CCc1nc(SCC(=O)c2cc(C)ccc2C)n[nH]1	–	inconclusive: 29.1 µM [activator, single point]
Cc1nc(NC(=S)NC(=O)COc2ccc(Cl)cc2)ccc1Br	–	inconclusive: 0.259 µM [activator, full curve]
O=C(N/N=C/c1ccc([N+](=O)[O-])o1)C(=O)Nc1ccc(C(=O)O)cc1	–	inconclusive: 14.6 µM [activator, partial curve, poor fit]
CC(=O)c1c(N2CCCC2)[nH]c(-c2ccccc2)nc1=S	–	inconclusive: 16.4 µM [activator, single point]
COc1cccc(CN(C)C(=O)COc2cccc3c2OC(C)(C)C3)c1OC	inactive: 51.6%	–
C[C@@H]1CN([C@H](C)CO)C(=O)c2cc(NC(=O)Nc3cccc4ccccc34)ccc2O[C@H]1CN(C)Cc1ccc(C(F)(F)F)cc1	–	inconclusive: 0.651 µM [activator, partial curve, poor fit]
Oc1cccc(O)c1	–	inconclusive: 13.3 µM [activator, single point]
COc1cc(CNC(C)C23CC4CC(CC(C4)C2)C3)ccc1OCC(=O)NC(C)(C)C (stereo not given)	–	inconclusive: 29.1 µM [activator, single point]
COc1ccc2nc(/N=C\N(C)C)sc2c1	inactive: 6.13%	–
Cc1cccc(Nc2ncnc3onc(-c4cccc(Cl)c4)c23)c1C	inactive: 14.6%	–

Single entries from above.
Potency with `CCOC(=O)/C=c1\s/c(=C\c2ccc(C#N)cc2)c(=O)n1CC(=O)Nc1cccc(C)c1C` reads inconclusive: 0.58 µM [activator, partial curve, poor fit]
re-replication activation with `Cc1nc(-c2ccc([N+](=O)[O-])cc2)nc2[nH]ccc(=O)c12` reads inactive: -11.6%
re-replication activation with `COc1cccc(CN(C)C(=O)COc2cccc3c2OC(C)(C)C3)c1OC` reads inactive: 51.6%
Potency with `Cc1ccccc1CSCC(=O)Nc1ccccc1-c1ccccc1` reads inconclusive: 0.0517 µM [activator, full curve, poor fit]

More structures

SMILES	re-replication activation	Potency
CC(C#N)(NC(=O)CN1CCN(S(=O)(=O)c2ccccc2Cl)CC1)C1CC1 (stereo not given)	inactive: -24.1%	–
O=C(NC1=C(NC2CCS(=O)(=O)C2)C(=O)c2ccccc2C1=O)c1ccccc1 (stereo not given)	–	inconclusive: 5.8 µM [activator, partial curve, poor fit]
COc1ccc(CNC(=O)NC2CCCCC2)cc1	–	active: 18.4 µM
N=C1/C(=C\c2ccc(-c3ccc(C(=O)O)cc3)o2)C(=O)N=C2SC=C(c3ccccc3)N12	–	inconclusive: 10.3 µM [activator, single point]
COc1ccc2oc(C(=O)OCC(=O)NCc3ccc(OC)c(OC)c3)c(C)c2c1	inactive: -72.7%	–
Cc1cc(=O)[nH]c(NN=Cc2cc(Br)ccc2O)n1	–	inconclusive: 2.31 µM [activator, full curve]
CC(C)Nc1nc(Oc2ccc(Cl)cc2)cc(C(F)(F)F)n1	inactive: 8.5%	–
CCN(CC)C(=S)SCC(=O)Nc1ncc2c(n1)CC(C)(C)CC2=O	inactive: -1.01%	–
CN(C)C(=O)c1ccccc1NC(=O)Cc1cccc2ccccc12	inactive: 26%	–
CCCCCNS(=O)(=O)c1cc2c3c(c1)CCC(=O)N3CCC2	inactive: -9.72%	–
CC(=O)c1c(C)nn(CC(O)Cn2c3c(c4cc(C)ccc42)CCCC3=O)c1C (stereo not given)	–	inconclusive: 29.1 µM [activator, single point]
CCN1CCN(CCNC(=O)CCc2c(C)c3c(C)nn(-c4ccccc4)c3n(C)c2=O)CC1	–	inconclusive: 23.1 µM [activator, single point]
CCOC(=O)c1ccc(S(=O)(=O)NNS(=O)(=O)c2ccc(C)cc2)cc1	inactive: -5.87%	–
C[C@H](NC(=O)c1cccc([N+](=O)[O-])c1)C(=O)OCC(=O)c1ccccc1Br	–	inconclusive: 29.1 µM [activator, single point]
CCc1ccccc1NC(=O)NC1CC2CCC(C1)N2Cc1cccs1 (stereo not given)	inactive: -2.44%	–
CCCn1c(C)cc(/C=C(\C#N)C(=O)OCC(=O)Nc2cccc(OC)c2)c1C	–	inconclusive: 29.1 µM [activator, single point]
COc1cccc(CNCCc2c[nH]c3ccccc23)c1OCc1ccc(F)cc1	–	inconclusive: 20.6 µM [activator, single point]
CCCCOc1ccc(/C=N/NC(=O)c2nnn(-c3nonc3N)c2C)cc1	–	inconclusive: 29.1 µM [activator, single point]
Nc1nnnn1/N=C\c1ccc(Cl)c([N+](=O)[O-])c1	–	inconclusive: 29.1 µM [activator, single point]
O=C(COC(=O)/C=C/C(=O)N1CCN(c2ccccc2)CC1)NC(c1ccccc1)c1ccccc1	–	inconclusive: 2.31 µM [activator, full curve, poor fit]
COc1ccc(N2C(N)=NC(N)=NC23CCCC3)cc1	inactive: -2.18%	–
Cc1nn(-c2ccccc2)c2[nH]c(=O)c(CNc3ccc(N4CCOCC4)cc3)cc12	inactive: 0.68%	–
